# Measurements from PubChem BioAssay AID493014 (National Center for Advancing Translational Sciences (NCATS), 2011).
# The other results are listed elsewhere or left out. Shown are side measurements of this screen, not its main read-out; they come without a call. The list favours compounds with an active or inconclusive main result. The note in brackets gives the kind of curve behind each potency; many fits are weak.
# Test: qHTS Assay to Find Inhibitors of Chronic Active B-Cell Receptor Signaling
# Conditions: ABC-DLBCL IkBa-CBG/CBR reporter, luminescence ratio (green luciferase fused to IkBa over red control in TMD8 lymphoma cells), 4 h
# Procedure, shortened: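 Concentration-response series (up to 46 uM) were applied to TMD8 dual-reporter cells for 4 h at 37C with doxycycline. Green/red ratio, after filter-overlap correction, defined %Activity; red signal alone was normalised to basal cells and zero luminescence.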
# [1] = measured here: CBR red luminescence, cell number
Compound,AC50 [1],AC50 (measured here: IkBa-CBG green luminescence)
COc1ccc(Nc2nc(NCc3ccco3)nc(N3CCOCC3)n2)cc1,"35.5 µM [falling, single point]",–
Cc1nc2c(cnn2-c2ccc(Cl)cc2)c(=O)n1-c1ccc(N2CCC(C)CC2)cc1,"6.51 µM [rising, single point]",–
COc1ccc(C(=O)/C=C2/C(=O)Nc3ccccc32)cc1OC,"35.5 µM [falling, single point]",–
Cc1ccn2c(=O)nc(SCC(=O)c3ccccc3)nc2c1,"1.84 µM [falling, full curve]",–
CCNS(=O)(=O)c1ccc(OCCNS(C)(=O)=O)cc1,"0.651 µM [falling, partial curve, poor fit]",–
COc1cccc(/C=C/C2=CC(C)(C)NC(=S)N2)c1,"10 µM [falling, partial curve]",–
c1ccc(SCc2cc(-c3ccccc3)no2)cc1,"15.8 µM [falling, single point]",–
CC1CCCCC12NC(=O)N(CC(=O)OCC(=O)N(C)C1CCCCC1)C2=O (stereo not drawn),"9.2 µM [rising, partial curve, poor fit]",–
Cc1c(NC(=O)C23CC4CC(CC(C)(C4)C2)C3)c(=O)n(-c2ccccc2)n1C,"3.98 µM [falling, single point]",–
CCS(=O)(=O)N1Cc2ccccc2CC1C(=O)NCC12CC3CC(CC(C3)C1)C2 (stereo not drawn),"0.82 µM [rising, partial curve, poor fit]",–
CC(=O)c1c(C)[nH]c(C(=O)COC(=O)c2cccc(S(=O)(=O)N(C)c3ccccc3)c2)c1C,"20.6 µM [falling, single point]",–
O=C(O)CCCC(=O)Nc1ccc2c(c1)oc1ccccc12,"0.282 µM [falling, full curve]",–
O=C(O)c1ccccc1SC1CC(=O)N(c2cccc3ccccc23)C1=O (stereo not drawn),"20 µM [falling, partial curve, poor fit]",–
O=C(/C=C/c1ccc(Cl)cc1Cl)NC(=S)Nc1ccc(CN2CCOCC2)cc1,"23.1 µM [falling, single point]",–
O=C(Nc1nc(N2C(=O)c3ccccc3C2=O)n(-c2ccccc2)n1)c1ccc(Cl)cc1,"17.8 µM [falling, single point]",–
CCn1c(SCC(=O)Nc2cc(C)on2)nc2sc(C)c(C)c2c1=O,–,"29.1 µM [falling, single point]"
Cc1ccc(S(=O)(=O)c2c(N)n(CC3CCOC3)c3nc4ccccc4nc23)cc1 (stereo not drawn),"29.1 µM [falling, single point]",–
Cc1csc(NC(=O)CSc2nnc(CCNC(=O)c3cccs3)n2C)n1,"29.1 µM [falling, single point]",–

# Complete entries, quoted from the list. Order of values: AC50 [1] | AC50 (measured here: IkBa-CBG green luminescence)
# `Cc1nc2c(cnn2-c2ccc(Cl)cc2)c(=O)n1-c1ccc(N2CCC(C)CC2)cc1` in the list: 6.51 µM [rising, single point] | –
# `CCS(=O)(=O)N1Cc2ccccc2CC1C(=O)NCC12CC3CC(CC(C3)C1)C2` (stereo not drawn) in the list: 0.82 µM [rising, partial curve, poor fit] | –
